Experimental data as given in patent EP4786493A1.
Residue numbers refer to the chain shown, from its start. No constants are given. Whether binding was seen depends on the method and setting. Some binding calls cover weakened binding; strength is not graded here.

Chains of the proteins cited; added tags and fusions are not shown. Lines headed by an entry give the natural chain unless they say otherwise; changes in a name come on top. A line that says so, or that is headed by a name, gives the form on record, which may keep a tag or linker.
recombinant human Claudin 18.2 protein (GenScript, Z03504) (P56856, form named): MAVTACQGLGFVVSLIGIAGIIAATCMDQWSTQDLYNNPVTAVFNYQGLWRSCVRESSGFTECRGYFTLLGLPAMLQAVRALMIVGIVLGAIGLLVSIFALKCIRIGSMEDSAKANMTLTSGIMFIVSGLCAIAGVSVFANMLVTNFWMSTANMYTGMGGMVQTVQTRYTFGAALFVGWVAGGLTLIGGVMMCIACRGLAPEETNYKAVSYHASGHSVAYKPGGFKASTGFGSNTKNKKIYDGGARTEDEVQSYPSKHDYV

B1: AHP29153 (antibody, V domains shown)
VH: QLQQVESGGGLVQPGGSLRLSCAASRNIGILSTMGWYRQAPGKQRELVATITRGGSTNYGEFVKGRFTISRDNAKNTVYLQMNSLKPEDTAVYYCNVDESWLGTQSYWGRGTTVTVSS
VL: QSVLTQPASVSGSPGQSITISCTGTSSDVGGYKYVSWYQQPPGKAPKLIIYEVTKRPSGVPDRFSGSKSGNTASLTVSGLQAEDEADYYCLSYAGSNNVFGTGTKLTVL
B2: AHP31548 (antibody, V domains shown)
VH: B1 VH with L2V, Q4L, V5M, E6Q
VL: QSALTQPPSASGSPGQSVTISCTGTSSDIGTYNFVSWYQQHPGKAPKLIIYEVSKRPSGVPDRFSGSKSGNTASLTVSGLQAEDEADYYCKSYPRVFGTGTKLTAL
B3: AHP32913 (antibody, V domains shown)
VH: B1 VH with L2V, Q4L, V5M, E6Q, T113Q
VL: QAVVTQEPSLTVSPGGTVTLTCGSSTGPVTSGHYPHWYQQKPGQAPKTLIFDTSHKHPWTPAQFSGSLLGGKAALTLSGAHPEDEAEYYCLLSYSGVRVFGGGTQLIIL
B4: AHP32919 (antibody, V domains shown)
VH: QVQLQESGGGVVQPGGSLRLSCAASQSIGLLSTMGWYRQAAGKQRELVATITRGGSTNYGEFVKGRFTISRDNAKNTVYLQMNSLKPEDTAVYYCTADESWLGTQSYWGRGTRVTVSS
VL: QAGLTQPPSASGTPGQGVTISCSGSSSNIGSNSVNWYQQLPGTAPKLLMHSNNERSSGVPDRFSGSKSGSSASLAISGLQSEDAADYFCGAWDDSLNGYVFGTGTKLTVL
B5: AHP32982 (antibody, V domains shown)
VH: B1 VH with L2V, Q4L, E6Q, T112P, T113L
VL: DIVMTQSPSSVSASVGDRVTITCRASQGISSWLAWYQQKPGKAPKLLIYAASSLQSGVPSRFSGSGSGTDFTLTISSLQPEDFATYYCQQANSFPLTFGGGTKVEIK
B6: AHP30826 (antibody, V domains shown)
VH: QVQLQQSGGGSVQAGGSLRLSCAASGTILSINAMGWYRQAPGKQRELVATITTGGNANYAHSVKGRFTISRDNAKNTVYLQMNNLKPEDTAVYYCNAEQVVVGFLQAYDVWGQGTTVTVSS
VL: DVVMTQSPLSLPVTLGQAASISCRSSQSLVHGDGNTYLNWIQQRPGQSPRRLIYKVSNRDSGVPDRFSGSGSGTDFTLKISRVEAEDVGVYYCMQGTHWPSTFGPGTKVDIK

Target: recombinant human Claudin 18.2 protein (GenScript, Z03504) (human) (UniProt P56856)
Test: indirect ELISA on coated recombinant human Claudin 18.2

binding, binds:
B1
B2
B3
B4
B5
B6

Target: recombinant human Claudin 18.2 protein (GenScript, Z03504) (human) (UniProt P56856)
Test: SPR Biacore 8K

binding, binds:
B1
B2
B3
B4
B5
B6
